The source of these data is paper PMC9122951.

Protein sequences, listed by entry. Tags and fused reporters are not part of them.
UniProt Q96AC1: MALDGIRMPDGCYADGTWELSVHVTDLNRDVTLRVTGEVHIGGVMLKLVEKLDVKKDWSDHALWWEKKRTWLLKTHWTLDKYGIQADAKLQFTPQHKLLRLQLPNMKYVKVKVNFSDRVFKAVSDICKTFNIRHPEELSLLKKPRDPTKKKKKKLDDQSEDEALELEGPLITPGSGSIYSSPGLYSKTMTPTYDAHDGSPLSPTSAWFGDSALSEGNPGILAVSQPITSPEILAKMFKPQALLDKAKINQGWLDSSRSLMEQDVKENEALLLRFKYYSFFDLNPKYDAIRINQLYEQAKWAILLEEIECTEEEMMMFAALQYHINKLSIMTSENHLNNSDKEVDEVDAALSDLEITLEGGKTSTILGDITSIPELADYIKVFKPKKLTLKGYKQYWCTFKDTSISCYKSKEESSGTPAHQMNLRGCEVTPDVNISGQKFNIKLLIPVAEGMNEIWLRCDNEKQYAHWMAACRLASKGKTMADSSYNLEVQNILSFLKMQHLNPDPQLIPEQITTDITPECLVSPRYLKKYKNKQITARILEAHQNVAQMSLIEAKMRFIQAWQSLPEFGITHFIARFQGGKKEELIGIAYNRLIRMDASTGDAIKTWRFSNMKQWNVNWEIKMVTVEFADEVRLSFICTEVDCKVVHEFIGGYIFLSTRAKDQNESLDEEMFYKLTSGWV
UniProt P10275: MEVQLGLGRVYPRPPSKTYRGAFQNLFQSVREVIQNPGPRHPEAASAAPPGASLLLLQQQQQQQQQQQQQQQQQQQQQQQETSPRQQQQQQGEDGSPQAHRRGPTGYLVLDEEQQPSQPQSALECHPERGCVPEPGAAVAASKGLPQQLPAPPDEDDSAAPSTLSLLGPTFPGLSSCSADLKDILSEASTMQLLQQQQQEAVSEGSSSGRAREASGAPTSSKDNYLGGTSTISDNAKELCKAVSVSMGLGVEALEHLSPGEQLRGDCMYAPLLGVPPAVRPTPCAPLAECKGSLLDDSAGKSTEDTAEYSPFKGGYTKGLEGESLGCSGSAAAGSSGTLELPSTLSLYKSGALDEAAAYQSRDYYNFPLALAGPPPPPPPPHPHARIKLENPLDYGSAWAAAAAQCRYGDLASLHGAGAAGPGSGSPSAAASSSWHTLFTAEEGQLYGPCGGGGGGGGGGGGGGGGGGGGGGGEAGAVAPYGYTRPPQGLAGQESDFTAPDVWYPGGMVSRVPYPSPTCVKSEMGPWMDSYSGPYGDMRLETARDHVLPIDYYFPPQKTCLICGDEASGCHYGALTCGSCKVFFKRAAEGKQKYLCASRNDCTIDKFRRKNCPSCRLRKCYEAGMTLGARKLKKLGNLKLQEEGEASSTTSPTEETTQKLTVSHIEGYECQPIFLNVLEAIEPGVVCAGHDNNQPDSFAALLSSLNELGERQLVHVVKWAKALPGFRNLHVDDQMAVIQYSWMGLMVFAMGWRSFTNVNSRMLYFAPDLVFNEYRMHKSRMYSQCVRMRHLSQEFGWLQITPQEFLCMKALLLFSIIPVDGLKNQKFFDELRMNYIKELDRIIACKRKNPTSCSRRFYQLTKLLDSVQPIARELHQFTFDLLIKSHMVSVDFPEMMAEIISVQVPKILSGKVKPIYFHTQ

Results are given in words; binding and its absence hold for the method and conditions named. In cells and extracts the contact can be indirect. Some binding calls cover weakened binding; strength is not graded here.

Assay [1] deals with GST-fusion protein containing full-length Kindlin-2 (UniProt Q96AC1). Nature of the assay: pull-down; GST-fusion proteins bound to Glutathione-Sepharose, mixed with BT549 cell lysates overnight at 4 °C, washed three times with PBS containing 0.2% Triton X-100, immunoblot for endogenous AR; only the target purified. Background: In western blotting, separated proteins are transferred to a membrane and probed.

Assay [2] has as its target Kindlin-2 (human (endogenous in BT549 and MDA-MB-453)) (UniProt Q96AC1). Nature of the assay: co-IP; endogenous proteins in BT549 or MDA-MB-453 cell lysates (3 mg); IP with anti-Kindlin-2 (clone 3A3) or anti-AR antibody on protein A/G-Sepharose, overnight at 4 °C, control mouse or rabbit IgG, immunoblot; also control siRNA against Kindlin-2 siRNA BT549 cells (anti-AR IP, Fig. 1E).

For assay [3], the target named is Flag-tagged wild-type Kindlin-2 (UniProt Q96AC1). Briefly: co-IP; lysates of Kindlin-2 knockdown BT549 cells infected with lentivirus encoding 3×Flag-tagged Kindlin-2 WT, ΔF1 or ΔF0; IP with anti-Flag antibody, immunoblot for endogenous AR and Src.
Assay [4] addresses Androgen receptor (human (endogenous in BT549 and MDA-MB-453)) (UniProt P10275). Nature of the assay: co-IP; endogenous proteins in BT549 or MDA-MB-453 cell lysates (3 mg); IP with anti-Kindlin-2 (clone 3A3) or anti-AR antibody on protein A/G-Sepharose, overnight at 4 °C, control mouse or rabbit IgG, immunoblot; also control siRNA against Kindlin-2 siRNA BT549 cells (anti-AR IP, Fig. 1E).

As for “Androgen receptor (from UniProt P10275 1-920)”, the binding entry in assay [1], in assay [2] and in assay [3] was “binds” in each case.
In the case of Kindlin-2 (from UniProt Q96AC1 1-680), the binding result in assay [4] is “binds”.
